Measured values: PMC7943567
No constants are given. Whether binding was seen depends on the method and setting. In cells and extracts the contact can be indirect. For some assays here: Where a sequence is shown, tags or fusion partners need not be part of it.

Chains of the proteins cited; added tags and fusions are not shown. Residues count along the entry.
UniProt P08581, residues 25-931: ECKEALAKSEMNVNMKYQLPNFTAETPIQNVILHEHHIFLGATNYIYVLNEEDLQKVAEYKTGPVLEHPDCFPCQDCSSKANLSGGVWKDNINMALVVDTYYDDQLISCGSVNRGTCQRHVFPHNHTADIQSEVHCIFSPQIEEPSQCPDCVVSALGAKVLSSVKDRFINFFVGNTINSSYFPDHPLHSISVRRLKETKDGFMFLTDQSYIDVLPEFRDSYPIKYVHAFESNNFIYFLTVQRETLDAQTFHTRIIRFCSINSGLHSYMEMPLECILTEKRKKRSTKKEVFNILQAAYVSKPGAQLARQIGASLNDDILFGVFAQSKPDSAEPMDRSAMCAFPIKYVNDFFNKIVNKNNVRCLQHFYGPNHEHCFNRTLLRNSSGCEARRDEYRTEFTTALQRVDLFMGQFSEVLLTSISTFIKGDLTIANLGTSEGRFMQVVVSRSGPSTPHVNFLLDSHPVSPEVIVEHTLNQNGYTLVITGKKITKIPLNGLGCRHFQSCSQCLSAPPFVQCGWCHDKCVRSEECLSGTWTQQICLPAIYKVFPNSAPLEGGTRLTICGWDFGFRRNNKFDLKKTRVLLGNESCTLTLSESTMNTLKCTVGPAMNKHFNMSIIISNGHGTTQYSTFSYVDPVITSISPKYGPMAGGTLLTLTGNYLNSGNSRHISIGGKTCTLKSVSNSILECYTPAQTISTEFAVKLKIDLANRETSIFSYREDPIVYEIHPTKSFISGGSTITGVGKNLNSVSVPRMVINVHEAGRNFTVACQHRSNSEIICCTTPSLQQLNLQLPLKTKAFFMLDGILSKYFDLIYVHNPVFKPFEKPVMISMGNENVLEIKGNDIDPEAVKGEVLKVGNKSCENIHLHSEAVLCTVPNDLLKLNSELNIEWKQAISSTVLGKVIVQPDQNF
UniProt P06731, residues 35-142: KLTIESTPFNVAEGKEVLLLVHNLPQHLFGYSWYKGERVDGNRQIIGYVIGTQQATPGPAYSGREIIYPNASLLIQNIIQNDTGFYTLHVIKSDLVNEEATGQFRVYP
UniProt P02751, residues 1539-1631: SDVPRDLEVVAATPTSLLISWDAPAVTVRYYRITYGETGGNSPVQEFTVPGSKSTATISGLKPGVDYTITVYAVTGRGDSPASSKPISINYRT
UniProt P78324, residues 31-148: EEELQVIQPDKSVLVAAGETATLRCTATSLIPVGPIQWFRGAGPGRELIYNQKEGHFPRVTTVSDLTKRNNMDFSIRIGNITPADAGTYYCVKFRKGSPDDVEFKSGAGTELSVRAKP
UniProt P01241, residues 27-217: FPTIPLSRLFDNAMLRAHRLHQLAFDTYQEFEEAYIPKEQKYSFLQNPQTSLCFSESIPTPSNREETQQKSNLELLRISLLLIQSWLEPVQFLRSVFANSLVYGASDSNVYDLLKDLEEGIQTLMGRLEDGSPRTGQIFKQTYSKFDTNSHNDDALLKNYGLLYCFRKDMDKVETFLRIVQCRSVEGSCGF
UniProt P02768, residues 25-609: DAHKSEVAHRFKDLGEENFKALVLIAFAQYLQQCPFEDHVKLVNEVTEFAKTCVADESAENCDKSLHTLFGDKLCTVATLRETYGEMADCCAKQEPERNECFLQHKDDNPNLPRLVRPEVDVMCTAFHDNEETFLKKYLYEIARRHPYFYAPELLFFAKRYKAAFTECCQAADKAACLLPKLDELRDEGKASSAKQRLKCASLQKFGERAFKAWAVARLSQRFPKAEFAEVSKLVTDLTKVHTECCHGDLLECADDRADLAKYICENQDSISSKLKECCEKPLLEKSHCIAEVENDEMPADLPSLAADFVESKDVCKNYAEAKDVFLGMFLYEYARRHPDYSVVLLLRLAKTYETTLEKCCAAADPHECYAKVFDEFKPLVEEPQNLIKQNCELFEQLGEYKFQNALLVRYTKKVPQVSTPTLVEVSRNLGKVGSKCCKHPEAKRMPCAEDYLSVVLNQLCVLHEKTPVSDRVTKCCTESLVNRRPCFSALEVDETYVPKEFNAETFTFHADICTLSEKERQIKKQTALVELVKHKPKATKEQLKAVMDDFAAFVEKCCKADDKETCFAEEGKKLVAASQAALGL
UniProt P05187, residues 23-506: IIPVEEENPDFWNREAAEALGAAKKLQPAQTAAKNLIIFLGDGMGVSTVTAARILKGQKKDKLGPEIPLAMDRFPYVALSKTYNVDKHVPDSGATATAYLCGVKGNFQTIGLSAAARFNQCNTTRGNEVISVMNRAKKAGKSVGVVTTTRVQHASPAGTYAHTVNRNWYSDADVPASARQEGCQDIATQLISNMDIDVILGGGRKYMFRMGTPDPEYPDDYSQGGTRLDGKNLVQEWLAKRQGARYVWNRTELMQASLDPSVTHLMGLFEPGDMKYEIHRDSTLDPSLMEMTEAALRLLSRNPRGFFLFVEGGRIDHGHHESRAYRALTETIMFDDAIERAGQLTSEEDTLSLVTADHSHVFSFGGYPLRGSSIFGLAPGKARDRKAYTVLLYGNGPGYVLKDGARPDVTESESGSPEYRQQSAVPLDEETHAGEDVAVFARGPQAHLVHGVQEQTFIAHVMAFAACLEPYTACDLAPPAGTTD

What was measured:
[1] = biological target: soluble ectodomain fragment of human MET (residues 1-931), tagged, captured on beads (human) (UniProt P08581); assay: pull-down; tagged PlxnB1(1-535) or MET(1-931) ectodomain captured on Protein A, NZ-1 or PMab-1 beads, incubated with culture supernatants containing the grafted or control proteins; eluted with SDS buffer, Coomassie-stained SDS-PAGE; only the target purified
[2] = biological target: T1, soluble ectodomain fragment of human PlxnB1 (residues 1-535), tagged, captured on beads (human) (UniProt O43157); assay: as above
T1 sequence: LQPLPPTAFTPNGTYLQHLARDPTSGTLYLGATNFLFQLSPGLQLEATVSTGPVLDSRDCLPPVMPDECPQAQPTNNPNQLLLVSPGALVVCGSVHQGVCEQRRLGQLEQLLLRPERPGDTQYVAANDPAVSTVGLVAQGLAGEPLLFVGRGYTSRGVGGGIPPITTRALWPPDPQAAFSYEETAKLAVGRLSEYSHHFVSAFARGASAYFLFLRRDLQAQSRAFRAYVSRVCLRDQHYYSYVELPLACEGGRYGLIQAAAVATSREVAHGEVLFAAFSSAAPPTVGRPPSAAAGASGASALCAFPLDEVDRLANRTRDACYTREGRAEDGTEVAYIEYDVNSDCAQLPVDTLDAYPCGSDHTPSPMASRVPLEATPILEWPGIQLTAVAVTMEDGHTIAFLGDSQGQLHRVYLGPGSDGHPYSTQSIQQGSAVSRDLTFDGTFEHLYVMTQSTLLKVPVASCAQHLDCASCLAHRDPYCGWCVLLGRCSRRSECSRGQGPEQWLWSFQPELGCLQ

Substance	binding [1]	binding [2]
CEA-Fc, non-grafted control (from UniProt P06731 35-142) (Fc fusion)	no binding	no binding
Fn10-Fc, non-grafted control (from UniProt P02751-15 1539-1631) (Fc fusion)	no binding	no binding
SIRPα-Fc, non-grafted control (from UniProt P78324 31-148) (Fc fusion)	no binding	no binding
human IgG1 Fc, non-grafted control (from UniProt P01857 104-330) (domain or fragment)	no binding	no binding
human growth hormone, non-grafted control (from UniProt P01241 27-217)	no binding	no binding
human serum albumin, non-grafted control (from UniProt P02768 25-609)	no binding	no binding
placental alkaline phosphatase, non-grafted control (from UniProt P05187 23-506) (enzyme)	no binding	no binding
